# Source: the supplement of paper PMC3334620
# Whole data set: some 33,000 sequences, median “E-score (-0.5 to 0.5)” near -0.015, cut for the highest 2% near 0.3. The list shows a part of the results.
# Molecular target: T1, Abf1 (UniProt P14164)
# T1 sequence: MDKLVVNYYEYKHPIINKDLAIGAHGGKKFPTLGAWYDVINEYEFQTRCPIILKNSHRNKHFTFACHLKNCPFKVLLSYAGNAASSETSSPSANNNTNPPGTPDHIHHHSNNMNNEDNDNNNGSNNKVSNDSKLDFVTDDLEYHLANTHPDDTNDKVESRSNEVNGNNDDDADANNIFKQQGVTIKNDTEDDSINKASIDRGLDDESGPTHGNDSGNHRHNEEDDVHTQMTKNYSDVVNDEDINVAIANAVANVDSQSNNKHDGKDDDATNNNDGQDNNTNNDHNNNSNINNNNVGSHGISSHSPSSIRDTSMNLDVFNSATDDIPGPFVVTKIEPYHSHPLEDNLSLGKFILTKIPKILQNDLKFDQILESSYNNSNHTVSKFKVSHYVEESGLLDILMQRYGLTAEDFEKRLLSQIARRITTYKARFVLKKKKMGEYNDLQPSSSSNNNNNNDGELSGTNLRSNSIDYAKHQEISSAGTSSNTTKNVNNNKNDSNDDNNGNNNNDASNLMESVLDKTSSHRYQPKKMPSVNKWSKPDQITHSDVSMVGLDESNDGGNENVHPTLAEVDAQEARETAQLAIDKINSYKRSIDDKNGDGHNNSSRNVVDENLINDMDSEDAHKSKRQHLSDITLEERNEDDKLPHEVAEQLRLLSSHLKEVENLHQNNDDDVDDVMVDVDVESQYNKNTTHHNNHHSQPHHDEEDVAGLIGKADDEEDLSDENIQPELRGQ
# Test: PBM E-score (8-mer binding enrichment) (E-score (-0.5 to 0.5)); higher = stronger / more preferred TF binding
# Conditions: protein concentration: 200 nM; construct: GST-full length
# How it was run: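 The E-score, a modified Wilcoxon-Mann-Whitney statistic, was computed by the Universal PBM Analysis Suite for every ungapped eight-base word pooled with its reverse complement. Scans behind it were normalised with masliner after bound GST-tagged yeast transcription factors were detected with fluorescent anti-GST. The proteins, at about 100-200 nM, had been applied to universal all-10-mer Agilent arrays made double-stranded by primer extension.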
row,Sequence,PBM E-score
1,ACCTGCAT,0.013
2,CGACACGA,0.298
3,AACGAAGC,-0.0275
4,CTCAATTA,0.123
5,CCTTCTCC,-0.217
6,CCAACGTC,0.158
7,AAGGCATG,-0.0413
8,AGGCGTAA,-0.0163
9,CGCATACC,-0.0212
10,ACTAGCAT,-0.0996
11,CAGACGGA,0.206
12,ACATATTC,0.112
13,AAACCTGT,0.00044
14,GGCCCCAC,-0.135
15,CTGACTTC,-0.175
16,CACGCTGG,0.0781
17,CAAGTACA,-0.194
18,AAAGTTTC,0.0305
19,GAGTCGCA,-0.284
20,GGCAATGA,0.146
21,CAGGTGAG,-0.0565
22,AATCGGCC,-0.286
23,CCGATCCA,-0.168
24,AACGGGCT,-0.0799
25,GGTGATTA,0.242

# 2 entries from above, as tab-separated lines.
row	Sequence	PBM E-score
3	AACGAAGC	-0.0275
20	GGCAATGA	0.146

# Additional records follow:

row,Sequence,PBM E-score
1,ACCCTCCA,-0.232
2,CATCAGGG,-0.0979
3,AGCAACCG,0.0929
4,CTAGTTAC,0.0384
5,AACTTGCG,0.0405
6,ATCAGACA,-0.0632
7,AGGTTGAC,-0.0821
8,GTACATTA,0.192
9,AAGGATTA,-0.138
10,CAGGGGCA,-0.0965
11,CTCCTTCA,-0.253
12,AGGGATAT,0.037
13,ATAAACAA,0.185
14,CTCATGAA,0.0449
15,AGTTTGTG,0.0523
16,GCGTAACA,-0.00058
17,AATTTGCA,-0.0199
18,GTCAAACA,-0.0854
19,CCCATGGC,-0.259
20,GTCCCGTA,0.0936
21,ATCCACGG,0.316
22,CCGTATCC,0.11
23,CATGTGCC,0.0113
24,AATTTAAC,0.158
25,CACACTAC,-0.0406

# Rewritten tab-delimited: entries from further up
row	Sequence	PBM E-score
6	CCAACGTC	0.158
2	CATCAGGG	-0.0979
16	GCGTAACA	-0.00058
21	ATCCACGG	0.316
23	CATGTGCC	0.0113

# (list continues)

row,Sequence,PBM E-score
1,TTAAAAAA,0.166
2,GTAGCATA,0.0973
3,CGAGCGAG,0.21
4,GTAAGGAA,-0.0598
5,ATTATTCG,0.278
6,CGTAATAC,0.303
7,CCGCTGGA,-0.222
8,ACCCCGTG,0.0514
9,AACCAATG,0.00464
10,GCGTATGA,0.0421
11,AATTATAG,0.101
12,AAGCCAAC,-0.0296
13,CAGCGTGC,-0.0572
14,TGCCTCCA,-0.102
15,ATTTTCAC,0.118
16,CCAGTCCC,-0.112
17,ATCAACAT,0.0539
18,AGGTAAGA,0.149
19,CTAGCGAG,-0.0638
20,CCCCATGC,-0.183
21,AAGAACGT,0.136
22,TTCGTCAA,0.151
23,CAATTCAG,0.0364
24,GTCTAAAC,0.00585
25,CTACTATC,0.231

row,Sequence,PBM E-score
1,ATCAGTAC,0.0944
2,CAGACCCG,-0.251
3,ACGGGCAA,0.0689
4,ATTCAATA,0.133
5,CGATCGAC,-0.0447
6,TAGCATGA,0.0481
7,TTCATCAA,0.041
8,TATTCTAA,0.0663
9,AGGATAAG,-0.149
10,CGAATATC,0.174
11,CACCTGAG,-0.172
12,GCGGCTAA,-0.147
13,TGGGTGAA,0.144
14,GACCAGGA,-0.0435
15,ACAGGAAT,-0.121
16,AGCACTTC,0.0874
17,GAGCAATA,-0.0765
18,AAGTGGGG,-0.192
19,CATTAGTA,0.0577
20,ACCCATCC,-0.236
21,TCATCAAA,0.063
22,CACATCTC,-0.117
23,TCGTTAAA,0.27
24,TCGATAGA,0.118
25,GAACACCA,-0.192

row,Sequence,PBM E-score
1,ATTAACAA,0.132
2,AGAGCCCG,-0.0823
3,ACTCATCA,0.131
4,ACCGTTAT,0.069
5,AATCGATA,0.143
6,AGGCACCA,-0.153
7,CCTCCAAG,-0.149
8,CCTTCCGC,-0.305
9,ACGCCTAC,-0.0105
10,AATAGTTA,-0.0177
11,GAATGACC,0.0136
12,ACACATGC,-0.114
13,GTCTCGTA,0.155
14,GAGGATCC,-0.0179
15,CATTCTGC,-0.00871
16,CTCAAGCA,0.0587
17,AATCATGC,0.0496
18,TAAACAGA,-0.0362
19,ATCACCTA,0.245
20,AAGTGGAG,-0.00206
21,ATGAGATC,0.183
22,CAAATTAA,-0.147
23,CAAAACGA,0.297
24,ATCCGTTC,0.0456
25,AACGGTGA,0.135

row,Sequence,PBM E-score
1,AATACAAT,0.094
2,CACGACGA,0.263
3,CGCGGCTA,-0.149
4,CGGAGTCC,-0.156
5,GCATTGCA,0.0293
6,AAGGGCAC,-0.0702
7,ACGCAACC,-0.00069
8,ACTCATAA,0.127
9,CTCTAAAG,-0.0484
10,AGCTCATG,0.0262
11,CTGCCCCC,-0.392
12,AAAGGTAG,0.0516
13,CTGACGCC,-0.261
14,ATCCCTAG,0.146
15,CACTGAAC,-0.0659
16,ACGCGGTC,-0.0102
17,ACCACCTA,-0.168
18,CCACTAGA,-0.27
19,CGCCCCAC,-0.141
20,AGCTTGCC,-0.0551
21,AGGACTCC,-0.394
22,AACGAGCC,0.0338
23,GCGATGGA,0.17
24,AGTATATA,0.31
25,CTTGCCTC,-0.185

# Retrieved one by one from above:
row,Sequence,PBM E-score
11,CTGCCCCC,-0.392
9,CTCTAAAG,-0.0484

# Remaining list, next part.

row,Sequence,PBM E-score
1,ATGCCCTA,-0.195
2,CCTCTTCG,-0.0259
3,ACGTGGAG,-0.0904
4,AGACTGTC,-0.218
5,CCGGCTAC,-0.245
6,CCCACGAG,0.0399
7,CCAAATAG,-0.0458
8,GAGGTATC,0.047
9,ATACTGAC,-0.0663
10,TCGAACGA,0.236
11,CTGAAAAC,0.0998
12,CATAAATA,0.0772
13,CGGTGTAC,-0.0935
14,ACCCCTCT,-0.259
15,CGGCTTTC,-0.112
16,AGCTAGAG,-0.0248
17,ACTCCTTC,-0.222
18,GAGGTCTA,-0.119
19,ACCGTGTG,0.0746
20,ACTGTCAG,0.132
21,CGCAATCC,0.0307
22,AATTACTC,0.092
